{"source": "PubChem BioAssay AID1508600", "about": "(Functional Genomics Laboratory (NCATS/FGL), 2020)", "note": "Screen size: about 53,000 sequences; about 3,700 (7%) were called active.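 How the source made its calls: active means gene knockdowns whose robust z-score for IL-1 alpha signal is at least 2 or at most -2, so actives lie on both sides; inactive means the rest.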 The list shows a part of the results."}
{"assay": "Components of the Cytosolic LPS Sensing Pathway: Gene Identification via Genome-wide siRNA Screen;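 further: robust z of the log signal after scaling to non-targeting control siRNA wells of the plate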", "conditions": "RAW264.7 macrophages, IL-1a HTRF, actives lie on both sides, screened at 100 nM (by protocol), cells primed 5 h with Pam3CSK4 first", "how_it_was_run": "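RAW264.7; siRNA 100 nM final, RNAiMAX, 48h 37 degrees C; Pam3CSK4 5 h; LipidA + TransIT-TKO 24 h; IL-1a HTRF; CellTiter-Glo viability; robust z vs negative-control median.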"}
{"sequence": "GCCAAAUCUACUGUUAUUUTT against Fam174a", "z-score": "inactive: 1.06"}
{"sequence": "GAUGGAGAUCAAGAUAUGGTT against Obox5", "z-score": "inactive: -1.91"}
{"sequence": "GGAAAUGAACUCAUAGCCATT against Olfr121", "z-score": "inactive: 0.0495"}
{"sequence": "AGAAAUGCCUCUUCAGUGATT against Olfr884", "z-score": "inactive: 1.59"}
{"sequence": "GGAAUUUGAGGAAUUGACATT against Dck", "z-score": "inactive: -0.454"}
{"sequence": "GGUCUUACCCUGCCAGCAUTT against Sh3rf1", "z-score": "inactive: 0.72"}
{"sequence": "CCAACUAAUGCCAAAAGAATT against Fnta", "z-score": "inactive: -0.711"}
{"sequence": "GCCCAUGUUUGUGAGGGUUTT against Fem1al", "z-score": "inactive: -0.0893"}
{"sequence": "CCAGUUUUUAGUUGUAGCCTT against Mta3", "z-score": "inactive: -0.924"}
{"sequence": "GCGUAUGGAAUCAUAAGAATT against Smurf2", "z-score": "inactive: -0.466"}
{"sequence": "GCGUAAGGAAGUUCUGUGCTT against Ly96", "z-score": "inactive: 0.0734"}
{"sequence": "GGUGAACAAUAUCUUCAUCTT against Klf5", "z-score": "inactive: 0.975"}
{"sequence": "GGUUUUAAAGCAAUGAGCATT against Olfr995", "z-score": "inactive: -1.2"}
{"sequence": "GGCUCAUCUAUCAGAUUUUTT against Clic5", "z-score": "inactive: 0.114"}
{"sequence": "GGCUAGCUUAUCAAGCAACTT against Alpk3", "z-score": "inactive: 0.73"}
{"sequence": "GGACAUCAUGAACAAGCAATT against Ghrh", "z-score": "inactive: -1.52"}
{"sequence": "GGAAAAUGUCUGUGAUCAUTT against Tulp3", "z-score": "inactive: -0.266"}
{"sequence": "GAUCUGUUUGAACAGUAUGTT against Clps", "z-score": "inactive: 1.96"}
{"sequence": "GGCAAGAUGUAUGAUGCUUTT against Slpi", "z-score": "inactive: 1.93"}
{"sequence": "GGCCCUUGAUAACUUUUCCTT against Mmachc", "z-score": "inactive: -0.121"}
{"sequence": "GGGACACGAUGAGGAGUCATT against Cfap410", "z-score": "active: -2.21"}
{"sequence": "CGACUUGAACAUGGUAAAATT against Eif5b", "z-score": "inactive: 0.307"}
{"sequence": "GGAGACAGAAAAUCAAGGCTT against Taf7", "z-score": "inactive: -0.506"}
{"sequence": "GGCCUUUUUCUUUCUUUUCTT against Olfr212", "z-score": "inactive: -0.849"}
{"sequence": "GGCAGCCUGAACAUCAAUGTT against S100a13", "z-score": "inactive: 1.47"}
{"sequence": "GGUCAUGUUAAAGGAAUCATT against Fam210a", "z-score": "inactive: 1.49"}
{"sequence": "GCAAUGAGGACUUACUUACTT against Echdc2", "z-score": "inactive: 0.757"}
{"sequence": "GGUCUUUCUGGCAAUUCUCTT against Zscan20", "z-score": "inactive: -0.606"}
{"sequence": "GGCAAGUGCAAUUUAUAAATT against Nfib", "z-score": "inactive: 0.434"}
{"sequence": "CCACUUUUGUAAUGGAAGCTT against Mfsd6l", "z-score": "inactive: 1.89"}
{"sequence": "GGAAAAGUCCAAUGUGACCTT against Npy4r", "z-score": "inactive: -1.24"}
{"sequence": "GGAAAAGAGUGAGAUUCAGTT against Ino80", "z-score": "inactive: -1.99"}
{"sequence": "CGCAACCUGUCACAUAAUATT against Bmpr2", "z-score": "inactive: -0.238"}
{"sequence": "CCACCAAGUGGUUUAUACATT against Atf7ip", "z-score": "inactive: -0.472"}
{"sequence": "GGAAGACUCGGAGUUUCUATT against Ece2", "z-score": "inactive: 1.73"}
{"sequence": "GGCACUAAUGAACAACUCUTT against Daam1", "z-score": "inactive: -0.162"}
{"sequence": "CCAGUACAUUGAGCUGGAUTT against Bpifb3", "z-score": "inactive: 1.82"}
{"sequence": "GGGUAAGAGUUACAGAAUATT against Serpinb8", "z-score": "inactive: -0.0947"}
{"sequence": "GGAUAAAUUCAAUGAGACATT against Afm", "z-score": "inactive: 0.585"}
{"sequence": "CCUUGUUGCUCUGUCGAUCTT against Grina", "z-score": "inactive: 0.0669"}
{"sequence": "GGUGAACAAGCUGUCCUCATT against Fgl2", "z-score": "inactive: -0.651"}
{"sequence": "GGACUUAAGUACAAAGAUCTT against Sap18", "z-score": "inactive: 1.46"}
{"sequence": "CCAUGGAAGUUUGAACUUATT against Cst13", "z-score": "inactive: 0.733"}
{"sequence": "GCCUCAAGGCAUUGGCAAGTT against Defb28", "z-score": "inactive: 1.25"}
{"sequence": "GGGCACUUCUGUCUUUGUCTT against P2rx3", "z-score": "inactive: -1.57"}
{"sequence": "GGAAAUGCCUUCAGAAAUUTT against Slc9a3r1", "z-score": "inactive: -1.22"}
{"sequence": "GCGAGAUAGGCUUUACUCUTT against Kdr", "z-score": "inactive: -1.49"}
{"sequence": "GGUAUUAGUAUGUAUCUUCTT against Olfr135", "z-score": "inactive: 0.305"}
{"sequence": "GGAAUGGUUUGAAGAACUUTT against Tlr6", "z-score": "inactive: 0.559"}
{"sequence": "GCAAAAGCGGGUCAAAAAATT against Lrrc72", "z-score": "active: 2.27"}
{"sequence": "GGCUUAAUUACACAUGUUCTT against Il6", "z-score": "inactive: -1.09"}
{"sequence": "GCCAUGGUUAUUAAGCUGGTT against Olfr608", "z-score": "inactive: -0.64"}
{"sequence": "GGCAAUCCUGUCCAACAAGTT against Hydin", "z-score": "inactive: -1.54"}
{"sequence": "CAACCCUGUAAGGUUGAUUTT against Oog3", "z-score": "inactive: -0.423"}
{"sequence": "GCCUGCUUAAGCUACUUAUTT against Fam210b", "z-score": "inactive: -1.04"}
{"sequence": "GGCUGCUUAAGUGUAUCAGTT against Cep78", "z-score": "inactive: -1.16"}
{"sequence": "GGUGGUGUACAACAGAGUUTT against Ust", "z-score": "inactive: 0.222"}
{"sequence": "GGAACCAACCAGGAGAAAUTT against Ms4a4d", "z-score": "active: -2.58"}
{"sequence": "GGCGAACAAUUCCCUCAUUTT against Nos1", "z-score": "inactive: -0.712"}
{"sequence": "GGUGAAAGUUACGUGUGUGTT against Dclk2", "z-score": "inactive: -0.4"}
{"sequence": "CGGCUUUCAAUCACAACGGTT against Wdr91", "z-score": "inactive: 0.889"}
{"sequence": "GGUUGAGAUGUUCCAUAGATT against C5ar2", "z-score": "inactive: 0.779"}
{"sequence": "GGAAAAUUAGUAACCUCCCTT against Fam189b", "z-score": "inactive: 1.08"}
{"sequence": "GCGUUUCACGUACCUUCCUTT against Nfatc1", "z-score": "inactive: 1.22"}
{"sequence": "GGACUUCAAAACAGAUCUGTT against H3f3a", "z-score": "inactive: 0.488"}
{"sequence": "GCACUAGCAAUUUUUCUUUTT against Tram1", "z-score": "inactive: -1.22"}
{"sequence": "GGAUGGGACUUUUGAAAAATT against Cd247", "z-score": "inactive: 1.77"}
{"sequence": "GCUCAAGUCUACGAGAGUUTT against Ccdc86", "z-score": "inactive: 0.973"}
{"sequence": "GGUGUUGAGAUCAUUCUGCTT against Olfr1264", "z-score": "inactive: -0.618"}
